doi:10.1101/2024.10.21.619451
No constants are given. Whether binding was seen depends on the method and setting. Binding seen in cells or lysates may run through a third protein. Here binding means that the protein was enriched with, or labelled near, the bait; the list need not be complete. Where a sequence is shown, tags or fusion partners need not be part of it.

Chains of the proteins cited; added tags and fusions are not shown.
UniProt F4HW04: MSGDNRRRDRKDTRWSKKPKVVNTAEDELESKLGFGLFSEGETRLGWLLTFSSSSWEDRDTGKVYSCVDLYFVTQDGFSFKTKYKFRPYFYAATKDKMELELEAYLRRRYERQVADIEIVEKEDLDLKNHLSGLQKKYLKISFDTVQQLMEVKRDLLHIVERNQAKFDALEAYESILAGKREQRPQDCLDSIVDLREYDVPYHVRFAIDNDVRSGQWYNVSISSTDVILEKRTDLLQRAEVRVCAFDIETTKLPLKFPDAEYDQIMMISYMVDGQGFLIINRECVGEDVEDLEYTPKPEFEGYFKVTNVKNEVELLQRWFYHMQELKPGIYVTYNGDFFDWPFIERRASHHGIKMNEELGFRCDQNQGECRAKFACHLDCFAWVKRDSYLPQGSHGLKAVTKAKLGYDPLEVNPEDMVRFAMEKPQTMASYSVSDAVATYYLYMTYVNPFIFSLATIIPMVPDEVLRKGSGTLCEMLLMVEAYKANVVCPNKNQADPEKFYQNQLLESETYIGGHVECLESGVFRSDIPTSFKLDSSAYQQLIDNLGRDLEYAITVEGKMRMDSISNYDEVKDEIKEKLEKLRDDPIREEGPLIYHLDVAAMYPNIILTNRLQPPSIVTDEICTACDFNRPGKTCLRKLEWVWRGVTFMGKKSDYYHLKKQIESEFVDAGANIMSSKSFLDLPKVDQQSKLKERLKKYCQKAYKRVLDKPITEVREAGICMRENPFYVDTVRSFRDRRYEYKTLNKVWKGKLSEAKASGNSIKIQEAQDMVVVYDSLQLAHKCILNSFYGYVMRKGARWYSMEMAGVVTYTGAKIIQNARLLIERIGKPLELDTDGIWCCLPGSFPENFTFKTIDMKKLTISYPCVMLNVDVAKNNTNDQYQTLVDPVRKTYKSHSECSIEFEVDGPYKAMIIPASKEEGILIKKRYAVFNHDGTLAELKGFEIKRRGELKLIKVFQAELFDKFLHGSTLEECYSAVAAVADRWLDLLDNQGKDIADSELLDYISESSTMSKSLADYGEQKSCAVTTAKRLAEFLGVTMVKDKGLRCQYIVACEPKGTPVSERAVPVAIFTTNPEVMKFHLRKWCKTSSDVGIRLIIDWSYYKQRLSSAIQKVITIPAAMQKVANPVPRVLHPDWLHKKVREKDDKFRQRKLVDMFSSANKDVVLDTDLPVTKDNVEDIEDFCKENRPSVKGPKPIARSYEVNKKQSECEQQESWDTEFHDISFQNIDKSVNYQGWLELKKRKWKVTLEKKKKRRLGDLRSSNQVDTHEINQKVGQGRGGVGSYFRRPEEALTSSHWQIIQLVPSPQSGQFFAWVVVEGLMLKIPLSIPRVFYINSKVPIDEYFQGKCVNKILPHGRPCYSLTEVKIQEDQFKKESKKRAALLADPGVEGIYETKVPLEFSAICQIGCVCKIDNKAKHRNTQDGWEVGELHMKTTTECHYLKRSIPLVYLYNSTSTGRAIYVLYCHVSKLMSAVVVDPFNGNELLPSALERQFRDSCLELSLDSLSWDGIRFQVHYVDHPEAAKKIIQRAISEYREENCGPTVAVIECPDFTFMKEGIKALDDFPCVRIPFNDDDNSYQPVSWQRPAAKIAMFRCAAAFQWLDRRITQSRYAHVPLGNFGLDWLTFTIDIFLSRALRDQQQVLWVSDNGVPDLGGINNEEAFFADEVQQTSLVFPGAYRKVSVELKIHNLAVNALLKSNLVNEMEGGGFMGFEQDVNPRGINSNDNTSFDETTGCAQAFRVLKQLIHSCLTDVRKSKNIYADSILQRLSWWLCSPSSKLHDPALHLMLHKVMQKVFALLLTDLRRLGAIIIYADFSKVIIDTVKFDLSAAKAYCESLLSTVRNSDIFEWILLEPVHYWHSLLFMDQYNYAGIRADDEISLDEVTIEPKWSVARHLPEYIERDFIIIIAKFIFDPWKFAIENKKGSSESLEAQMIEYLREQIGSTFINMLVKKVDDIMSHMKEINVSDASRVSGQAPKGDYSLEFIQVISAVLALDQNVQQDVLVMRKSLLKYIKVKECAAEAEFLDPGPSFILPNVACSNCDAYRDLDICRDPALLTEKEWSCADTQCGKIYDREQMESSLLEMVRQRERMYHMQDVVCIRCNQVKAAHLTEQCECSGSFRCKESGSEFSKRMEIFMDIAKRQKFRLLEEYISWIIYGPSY

Biological target: T1, GS-ULT1 (GS-tagged U…1 fusion protein) (Arabidopsis thaliana) (UniProt Q8GZA8)
T1 sequence: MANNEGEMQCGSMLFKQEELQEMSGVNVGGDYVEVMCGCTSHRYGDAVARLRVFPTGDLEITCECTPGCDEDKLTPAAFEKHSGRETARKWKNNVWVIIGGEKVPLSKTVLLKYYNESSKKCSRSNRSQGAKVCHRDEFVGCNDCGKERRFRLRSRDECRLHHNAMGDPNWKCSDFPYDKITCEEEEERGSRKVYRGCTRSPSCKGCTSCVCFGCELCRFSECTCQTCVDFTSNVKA
Test: affinity purification with mass spectrometry

With “EARLY IN SHORT DAYS 7 (ESD7), endogenous (from UniProt F4HW04 1-2161)” the binding was “binds”.

INCURVATA 2 (ICU2), endogenous was tested, and the binding was “binds”.
